Experimental data from PubChem BioAssay AID2685 (National Center for Advancing Translational Sciences (NCATS), 2010).
The list shows a part of the results. These are further read-outs of the screen, such as a control signal, another cell line or another target. No call is given for them. Most of these compounds were active or inconclusive in the main read-out, so they are no random draw. Potencies come from curve fits of mixed quality, noted in brackets.

Test: qHTS Assay for Lipid Storage Modulators in Drosophila S3 Cells;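 as to cell number change: cells counted by Cell Tracker Red CMTPX staining in the red channel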
Details: BODIPY lipid droplet fluorescence, 18-24 h; for cell number change: measured here: cell count max response, cells fed with added oleic acid
In short: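 Laser-scanning cytometry quantifies lipid droplet accumulation (500–530 nm total intensity; droplet/cell object ratio) in oleic acid-fed (400 uM added) Drosophila S3 cells treated with a concentration series. 20 uM Triacsin C defined 100% inhibition.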

[1] = measured here: lipid fluorescence (Fed channel) AC50, cells fed with added oleic acid
[2] = measured here: cell number channel AC50, cells fed with added oleic acid

CCO[C@@H]1OC(C(=O)NCc2ccccc2)=C[C@H](C2CCCCC2)[C@H]1CCCO
cell number change: -10.3% | AC50 [1]: 6.51 µM [rising, single point]

O=C(COC(=O)c1ccc2c(c1)C(=O)N(Cc1ccncc1)C2=O)Nc1cccc2ccccc12
cell number change: -3.18%

O=C(Nc1ccc(S(=O)(=O)NCc2ccco2)cc1)c1ccc(F)cc1
cell number change: 5.56%

Nn1c(SCc2ccccc2)nc2ccccc21
AC50 [1]: 29.1 µM [falling, single point]

COc1cccc(-c2cc(C(=O)NCC3CCCO3)on2)c1 (stereo not drawn)
cell number change: 15% | AC50 [2]: 5.8 µM [rising, single point]

Cc1cc2cc(CN(Cc3cccs3)Cc3nnnn3CC3CCCO3)c(=O)[nH]c2cc1C (stereo not drawn)
cell number change: 17.1% | AC50 [2]: 1.46 µM [rising, partial curve, poor fit]

Cc1ccc(NC(=O)n2ccc(-c3ccc(-n4ccnc4)cc3)n2)cc1
AC50 [2]: 0.58 µM [rising, single point] | AC50 [1]: 0.58 µM [rising, single point]

CCCC(C(=O)NC1CCCC1)N(Cc1ccc2c(c1)OCO2)C(=O)c1snc(C(N)=O)c1N (stereo not drawn)
AC50 [1]: 0.291 µM [rising, partial curve, poor fit]

Brc1ccccc1OCCOc1cccc2cccnc12
cell number change: 17.2% | AC50 [1]: 2.31 µM [falling, partial curve, poor fit]

COc1ccc(CCN2CC(C(=O)N(C)Cc3ccc4nsnc4c3)CCC2=O)cc1 (stereo not drawn)
cell number change: 11.4%

O=C(/C=C/c1ccccc1Cl)Nc1ccc(S(=O)(=O)Nc2ncccn2)cc1
cell number change: 39.1% | AC50 [2]: 0.00461 µM [rising, full curve, poor fit] | AC50 [1]: 0.00461 µM [rising, full curve, poor fit]

COc1ccc(C2CC(c3ccc4ccccc4c3OC(C)=O)=NN2C(=O)/C=C/c2ccccc2)cc1 (stereo not drawn)
AC50 [1]: 5.17 µM [falling, partial curve]

COc1ccc(-c2cc(C(=O)N3CCN(C(c4ccccc4)c4ccccc4)CC3)no2)cc1OC
cell number change: -9.38% | AC50 [2]: 0.116 µM [falling, full curve, poor fit] | AC50 [1]: 0.116 µM [falling, full curve, poor fit]

Cc1c(NC(=O)C(C)C)cccc1-c1nc2ncccc2o1
cell number change: -6.08%

CN(C)c1nc(C(N)=O)nc(N2CCOCC2)n1
cell number change: -2.08% | AC50 [2]: 0.731 µM [falling, full curve] | AC50 [1]: 6.51 µM [falling, single point]

O=C(NC(Cc1ccccc1)C(=O)O)c1ccc(S(=O)(=O)N2CCCCC2)cc1 (stereo not drawn)
cell number change: -101% | AC50 [2]: 23.1 µM [falling, partial curve] | AC50 [1]: 16.4 µM [falling, single point]

O=C(Nc1cccc(C(=O)Nc2ccc(Cl)cn2)c1)c1ccccc1
cell number change: 47%

O=C(CN1CCN(C(C(=O)Nc2ccc(F)cc2)c2ccccc2)CC1)NC1CC1 (stereo not drawn)
cell number change: 8.05% | AC50 [1]: 6.51 µM [rising, single point]

COc1ccccc1CN(Cc1ccco1)S(=O)(=O)c1ccc(-n2cnnn2)c(OC)c1
cell number change: -8.28% | AC50 [1]: 6.51 µM [rising, partial curve, poor fit]

CN(C)/C=C/C(=O)c1cnc(-c2cccc(Cl)c2)s1
AC50 [1]: 0.13 µM [rising, full curve, poor fit]

Cc1cccc(-c2nc(CN3CCN(Cc4cccc(F)c4)CC3)c(C)o2)c1
cell number change: 2.05% | AC50 [1]: 6.51 µM [rising, single point]

CCOc1ccc(NC(=S)N2CCN(C/C=C/c3ccccc3)CC2)cc1
AC50 [2]: 2.06 µM [rising, partial curve] | AC50 [1]: 6.51 µM [rising, single point]

Oc1c(Cl)cc(Cl)cc1CNc1ccccn1
cell number change: 4.21% | AC50 [1]: 23.1 µM [falling, single point]

Cc1sc(NC(=S)NC(=O)C2CCCCC2)c(C(N)=O)c1C
cell number change: -2.82%

O=C(CSc1nnc2ccccn12)Nc1cccc(-c2nc3ccccc3s2)c1
cell number change: 25.4% | AC50 [1]: 1.16 µM [rising, partial curve]

CC(C(=O)OCC(=O)Nc1ccc2c(c1)OCO2)N1C(=O)c2ccccc2C1=O (stereo not drawn)
cell number change: 14.9% | AC50 [1]: 29.1 µM [rising, partial curve, poor fit]

CCOc1ccccc1NC(=O)Cn1nnc(C(=O)NCc2cccs2)c1N
cell number change: 10.7%

COC(=O)C1=C(N)OC2=C(C(=O)CC(C)(C)C2)C1c1cccnc1 (stereo not drawn)
cell number change: -19.9%

CCOc1ccccc1NC(=O)c1cc(-c2ccncc2)nc2c(Cl)cccc12
cell number change: 28.3%

CCOC(=O)c1c(C)oc2c1c(C(c1cccnc1)N1CCOCC1)c(O)c1ccccc12 (stereo not drawn)
cell number change: -21.6% | AC50 [1]: 18.4 µM [rising, single point]

COc1ccccc1NC(=O)C(C)OC(=O)c1cccc(-n2cnnn2)c1 (stereo not drawn)
cell number change: 73.5% | AC50 [2]: 10.3 µM [rising, partial curve]

O=C(NCc1ccc(N2CCCC2=O)cc1)c1cc(COc2c(F)cccc2F)on1
cell number change: -20.5%

OCCN1C2=NCCCN2c2ccccc21
cell number change: -18.6%

O=C(NCc1ccccn1)c1c(Cl)cccc1Cl
cell number change: -0.912% | AC50 [1]: 0.00461 µM [falling, full curve, poor fit]

O=C(NCC1CCCO1)c1cc([N+](=O)[O-])ccc1Cl (stereo not drawn)
cell number change: -63.2% | AC50 [2]: 5.8 µM [falling, full curve] | AC50 [1]: 9.2 µM [falling, partial curve]

CC(=O)c1ccccc1OCc1ccc(S(=O)(=O)Cc2ccccc2)cc1
cell number change: 1.17% | AC50 [1]: 29.1 µM [falling, single point]

O=C(Nc1nccs1)c1c(O)c2cccc3c2n(c1=O)CCC3
cell number change: -0.419% | AC50 [1]: 16.4 µM [rising, single point]

COc1cc(/C=C/c2ccc3cccc([N+](=O)[O-])c3n2)ccc1OCC(=O)O
cell number change: 57.4% | AC50 [2]: 29.1 µM [rising, single point] | AC50 [1]: 5.8 µM [falling, single point]

O=C(NCc1ccccc1)c1ccc(C(=O)N(C2CCCCC2)C2CCCCC2)cc1
cell number change: -64.1% | AC50 [2]: 29.1 µM [falling, single point] | AC50 [1]: 1.3 µM [rising, full curve, poor fit]

CN(CCO)c1ccc([N+](=O)[O-])cc1C(=O)O
cell number change: -96.5% | AC50 [2]: 29.1 µM [falling, single point]

Cc1cc(=O)oc2cc(NC(=O)C3CC(=O)N(Cc4ccccc4)C3)ccc12 (stereo not drawn)
cell number change: -25% | AC50 [1]: 18.4 µM [rising, single point]

C=CCN(c1ccc(F)cc1)S(=O)(=O)c1cc(C(=O)NC2CCC(O)CC2)ccc1Cl (stereo not drawn)
cell number change: -2.33%

CCOC(=O)c1sc(-c2ccccc2)cc1NC(=O)Nc1ccc([N+](=O)[O-])cc1
cell number change: 33.3% | AC50 [2]: 32.6 µM [rising, single point]

Nc1nc2c(ncn2COCCO)c(=O)[nH]1
cell number change: 17.6% | AC50 [1]: 29.1 µM [falling, single point]

COc1ccc2c(c1)C1(C)CC(C)(C)N2C(=O)N1c1ccccc1 (stereo not drawn)
cell number change: -39% | AC50 [2]: 8.2 µM [falling, partial curve] | AC50 [1]: 18.4 µM [falling, partial curve]

Cc1oc(-c2ccc(Cl)cc2)nc1CSCC(=O)NC1CCN(Cc2ccccc2)CC1
cell number change: -0.989% | AC50 [2]: 0.0411 µM [rising, full curve, poor fit] | AC50 [1]: 29.1 µM [falling, single point]

Cc1cccc(C(=O)Nc2ccc(C(=O)N3CCCCC3C)cc2)c1 (stereo not drawn)
cell number change: -19.8%

Cc1ccc(OCC(=O)N/N=C/c2cccc3cccnc23)cc1
cell number change: -28.2% | AC50 [1]: 7.31 µM [falling, partial curve, poor fit]

CS(=O)(=O)c1ccc(-n2c(=O)n(Cc3ccccc3)c(=O)c3[nH]cnc32)cc1
cell number change: 23.5% | AC50 [1]: 20.6 µM [rising, single point]

CCC(CCC(=O)Nc1nncs1)C(=O)O (stereo not drawn)
cell number change: -71.9% | AC50 [2]: 29.1 µM [falling, single point] | AC50 [1]: 20.6 µM [falling, partial curve]

O=C(CSc1nc(=O)n2cc(Cl)ccc2n1)Nc1ccc2c(c1)OCCO2
AC50 [1]: 18.4 µM [rising, single point]

CCCP(=O)(CC(=O)O)c1ccccc1 (stereo not drawn)
cell number change: -29.6% | AC50 [2]: 3.66 µM [falling, full curve, poor fit]

FC(F)(F)c1cc(-c2ccccc2)nc(-n2cncn2)n1
AC50 [2]: 0.461 µM [rising, full curve] | AC50 [1]: 0.58 µM [rising, full curve]

COc1cc(NC(=O)Cn2nnc(-c3ccccc3N)n2)cc(OC)c1
cell number change: 24.4% | AC50 [2]: 4.11 µM [rising, full curve, poor fit] | AC50 [1]: 7.31 µM [rising, partial curve]

CCN(CC)CCCNCC(=O)Nc1ccc2c(c1)CCC2
cell number change: -98.6%

COc1ccc(NC(=O)c2c(C)noc2C(C)C)cc1S(=O)(=O)N1CCCCC1
cell number change: 5.76% | AC50 [1]: 20.6 µM [rising, single point]

COc1ccc(-n2c(COc3ccccc3)nnc2SCC(N)=O)cc1
AC50 [2]: 0.58 µM [falling, full curve, poor fit] | AC50 [1]: 0.651 µM [falling, partial curve, poor fit]

O=C(CSc1nc2ccccc2[nH]1)Nc1nc(-c2ccc(Br)cc2)cs1
cell number change: -30.5% | AC50 [2]: 29.1 µM [falling, single point] | AC50 [1]: 6.51 µM [rising, partial curve, poor fit]

CC1CN(c2ccc([N+](=O)[O-])c(NCCOc3ccccc3)c2)CC(C)N1 (stereo not drawn)
cell number change: -32.5% | AC50 [2]: 18.4 µM [falling, partial curve, poor fit]

Cc1cc(C)n2nc(C(=O)OCC(=O)NNC(=O)c3ccccc3)nc2n1
cell number change: -12.3% | AC50 [1]: 10.3 µM [rising, partial curve]
